Source: article doi:10.1101/519090
Like-named read-outs stand apart in the source and are kept apart here. Results are given in words; binding and its absence hold for the method and conditions named. In cells and extracts the contact can be indirect. These calls come from enrichment with a bait or labelling near it, and not all partners need be listed. For part of these data: No binding means not detected with the bait. For part of these data: Where a sequence is shown, tags or fusion partners need not be part of it.

Protein sequences, listed by entry. Tags and fused reporters are not part of them.
UniProt Q13547: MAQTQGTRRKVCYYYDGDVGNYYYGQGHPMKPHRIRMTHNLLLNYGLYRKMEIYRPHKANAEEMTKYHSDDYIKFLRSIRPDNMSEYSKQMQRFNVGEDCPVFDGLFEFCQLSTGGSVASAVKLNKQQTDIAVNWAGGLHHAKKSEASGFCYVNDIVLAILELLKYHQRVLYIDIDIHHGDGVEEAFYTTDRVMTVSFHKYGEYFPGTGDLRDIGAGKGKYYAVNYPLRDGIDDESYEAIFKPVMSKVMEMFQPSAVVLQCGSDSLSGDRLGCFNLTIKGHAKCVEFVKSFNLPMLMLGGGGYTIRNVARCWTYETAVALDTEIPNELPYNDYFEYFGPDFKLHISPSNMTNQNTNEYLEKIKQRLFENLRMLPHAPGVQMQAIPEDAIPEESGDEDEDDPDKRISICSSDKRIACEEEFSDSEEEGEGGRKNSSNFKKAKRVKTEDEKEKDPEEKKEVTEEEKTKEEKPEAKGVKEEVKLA
UniProt Q92769: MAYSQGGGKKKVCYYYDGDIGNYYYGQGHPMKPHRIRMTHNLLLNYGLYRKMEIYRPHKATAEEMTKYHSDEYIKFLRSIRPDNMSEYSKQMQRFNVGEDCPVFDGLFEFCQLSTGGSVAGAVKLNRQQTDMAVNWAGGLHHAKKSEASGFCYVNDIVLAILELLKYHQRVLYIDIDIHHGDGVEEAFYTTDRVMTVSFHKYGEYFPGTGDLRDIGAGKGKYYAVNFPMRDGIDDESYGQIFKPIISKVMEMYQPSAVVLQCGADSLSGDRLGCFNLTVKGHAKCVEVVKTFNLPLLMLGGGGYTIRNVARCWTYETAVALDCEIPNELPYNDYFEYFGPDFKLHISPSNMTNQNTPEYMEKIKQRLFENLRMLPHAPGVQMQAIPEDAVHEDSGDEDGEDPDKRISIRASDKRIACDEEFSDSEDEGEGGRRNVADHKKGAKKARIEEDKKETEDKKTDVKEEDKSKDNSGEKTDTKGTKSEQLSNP
UniProt Q12824: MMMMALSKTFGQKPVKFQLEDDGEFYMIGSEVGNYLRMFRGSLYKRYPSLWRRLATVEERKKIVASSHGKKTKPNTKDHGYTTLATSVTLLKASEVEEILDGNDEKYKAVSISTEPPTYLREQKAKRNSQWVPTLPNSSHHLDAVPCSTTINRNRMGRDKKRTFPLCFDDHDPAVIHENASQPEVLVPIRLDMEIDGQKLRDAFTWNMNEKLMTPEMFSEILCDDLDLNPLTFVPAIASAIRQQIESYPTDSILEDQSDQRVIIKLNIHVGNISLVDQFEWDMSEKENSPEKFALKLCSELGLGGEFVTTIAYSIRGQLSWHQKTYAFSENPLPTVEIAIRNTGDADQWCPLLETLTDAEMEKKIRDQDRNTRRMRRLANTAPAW
UniProt Q92922: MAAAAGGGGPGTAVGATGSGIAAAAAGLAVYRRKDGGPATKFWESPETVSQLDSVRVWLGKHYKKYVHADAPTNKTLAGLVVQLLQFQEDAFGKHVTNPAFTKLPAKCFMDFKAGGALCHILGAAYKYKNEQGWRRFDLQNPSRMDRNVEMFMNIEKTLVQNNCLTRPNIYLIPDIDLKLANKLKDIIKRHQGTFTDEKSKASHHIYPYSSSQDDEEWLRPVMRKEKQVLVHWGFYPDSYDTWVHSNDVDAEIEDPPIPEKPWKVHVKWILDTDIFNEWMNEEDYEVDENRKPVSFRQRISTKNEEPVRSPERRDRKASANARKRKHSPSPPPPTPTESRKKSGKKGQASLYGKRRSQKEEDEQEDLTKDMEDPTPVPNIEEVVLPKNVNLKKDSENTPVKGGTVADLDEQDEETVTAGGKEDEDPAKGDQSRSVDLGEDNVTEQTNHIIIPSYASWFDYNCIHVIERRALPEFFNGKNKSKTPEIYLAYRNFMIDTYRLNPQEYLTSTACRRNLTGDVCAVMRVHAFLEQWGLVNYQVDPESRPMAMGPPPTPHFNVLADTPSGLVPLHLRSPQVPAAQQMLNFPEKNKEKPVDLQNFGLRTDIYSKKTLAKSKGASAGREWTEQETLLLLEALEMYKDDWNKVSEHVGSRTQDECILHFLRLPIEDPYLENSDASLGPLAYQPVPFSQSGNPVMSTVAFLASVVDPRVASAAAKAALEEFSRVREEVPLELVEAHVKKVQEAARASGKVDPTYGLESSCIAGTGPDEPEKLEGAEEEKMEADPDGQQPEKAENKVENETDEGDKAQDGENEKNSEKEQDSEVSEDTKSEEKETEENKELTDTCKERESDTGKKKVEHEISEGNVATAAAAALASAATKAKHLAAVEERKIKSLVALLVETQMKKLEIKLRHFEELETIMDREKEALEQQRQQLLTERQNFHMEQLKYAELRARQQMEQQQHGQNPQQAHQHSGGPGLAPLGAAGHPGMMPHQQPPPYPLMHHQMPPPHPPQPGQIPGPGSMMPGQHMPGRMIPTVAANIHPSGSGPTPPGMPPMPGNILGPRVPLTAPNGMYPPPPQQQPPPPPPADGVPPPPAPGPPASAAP

T1: SNAG-BirA*:HA (mouse (cDNA from MEL cells)) (UniProt O70237)
T1 sequence: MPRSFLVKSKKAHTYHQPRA

B1: GSE1, endogenous in K562 cells (protein, UniProt Q14687 1-1217)
chain: MKGMSHEPKSPSLGMLSTATRTTATVNPLTPSPLNGALVPSGSPATSSALSAQAAPSSSFAAALRKLAKQAEEPRGSSLSSESSPVSSPATNHSSPASTPKRVPMGPIIVPPGGHSVPSTPPVVTIAPTKTVNGVWRSESRQDAGSRSSSGGRERLIVEPPLPQEKAGGPAIPSHLLSTPYPFGLSPSSVVQDSRFPPLNLQRPVHHVVPPSTVTEDYLRSFRPYHTTDDLRMSSLPPLGLDPATAAAYYHPSYLAPHPFPHPAFRMDDSYCLSALRSPFYPIPTPGSLPPLHPSAMHLHLSGVRYPPELSHSSLAALHSERMSGLSAERLQMDEELRREREREREREREREADREREKEREREREKEREQEKEREREKERERELERQREQRAREKELLAAKALEPSFLPVAELHGLRGHATEERGKPSEQLTPTRAEKLKDAGLQAPKPVQHPLHPVPTPHHTVPSLISNHGIFSLPSSSAATALLIQRTNEEEKWLARQRRLRQEKEDRQSQVSEFRQQVLEQHLDMGRPPVPAEAEHRPESTTRPGPNRHEPGGRDPPQHFGGPPPLISPKPQLHAAPTALWNPVSLMDNTLETRRAESHSLHSHPAAFEPSRQAAVPLVKVERVFCPEKAEEGPRKREPAPLDKYQPPPPPPREGGSLEHQPFLPGPGPFLAELEKSTQTILGQQRASLPQAATFGELSGPLKPGSPYRPPVPRAPDPAYIYDEFLQQRRRLVSKLDLEERRRREAQEKGYYYDLDDSYDESDEEEVRAHLRCVAEQPPLKLDTSSEKLEFLQLFGLTTQQQKEELVAQKRRKRRRMLRERSPSPPTIQSKRQTPSPRLALSTRYSPDEMNNSPNFEEKKKFLTIFNLTHISAEKRKDKERLVEMLRAMKQKALSAAVADSLTNSPRDSPAVSLSEPATQQASLDVEKPVGVAASLSDIPKAAEPGKLEQVRPQELSRVQELAPASGEKARLSEAPGGKKSLSMLHYIRGAAPKDIPVPLSHSTNGKSKPWEPFVAEEFAHQFHESVLQSTQKALQKHKGSVAVLSAEQNHKVDTSVHYNIPELQSSSRAPPPQHNGQQEPPTARKGPPTQELDRDSEEEEEEDDEDGEDEEEVPKRKWQGIEAVFEAYQEHIEEQNLERQVLQTQCRRLEARHYSLSLTAEQLSHSVAELRSQKQKMVSERERLQAELDHLRKCLALPAMHWPRGYLKGYPR
B2: ZMYM2, endogenous in K562 cells (protein, UniProt Q9UBW7 1-1377)
chain: MDTSSVGGLELTDQTPVLLGSTAMATSLTNVGNSFSGPANPLVSRSNKFQNSSVEDDDDVVFIEPVQPPPPSVPVVADQRTITFTSSKNEELQGNDSKITPSSKELASQKGSVSETIVIDDEEDMETNQGQEKNSSNFIERRPPETKNRTNDVDFSTSSFSRSKVNAGMGNSGITTEPDSEIQIANVTTLETGVSSVNDGQLENTDGRDMNLMITHVTSLQNTNLGDVSNGLQSSNFGVNIQTYTPSLTSQTKTGVGPFNPGRMNVAGDVFQNGESATHHNPDSWISQSASFPRNQKQPGVDSLSPVASLPKQIFQPSVQQQPTKPVKVTCANCKKPLQKGQTAYQRKGSAHLFCSTTCLSSFSHKPAPKKLCVMCKKDITTMKGTIVAQVDSSESFQEFCSTSCLSLYEDKQNPTKGALNKSRCTICGKLTEIRHEVSFKNMTHKLCSDHCFNRYRMANGLIMNCCEQCGEYLPSKGAGNNVLVIDGQQKRFCCQSCVSEYKQVGSHPSFLKEVRDHMQDSFLMQPEKYGKLTTCTGCRTQCRFFDMTQCIGPNGYMEPYCSTACMNSHKTKYAKSQSLGIICHFCKRNSLPQYQATMPDGKLYNFCNSSCVAKFQALSMQSSPNGQFVAPSDIQLKCNYCKNSFCSKPEILEWENKVHQFCSKTCSDDYKKLHCIVTYCEYCQEEKTLHETVNFSGVKRPFCSEGCKLLYKQDFARRLGLRCVTCNYCSQLCKKGATKELDGVVRDFCSEDCCKKFQDWYYKAARCDCCKSQGTLKERVQWRGEMKHFCDQHCLLRFYCQQNEPNMTTQKGPENLHYDQGCQTSRTKMTGSAPPPSPTPNKEMKNKAVLCKPLTMTKATYCKPHMQTKSCQTDDTWRTEYVPVPIPVPVYIPVPMHMYSQNIPVPTTVPVPVPVPVFLPAPLDSSEKIPAAIEELKSKVSSDALDTELLTMTDMMSEDEGKTETTNINSVIIETDIIGSDLLKNSDPETQSSMPDVPYEPDLDIEIDFPRAAEELDMENEFLLPPVFGEEYEEQPRPRSKKKGAKRKAVSGYQSHDDSSDNSECSFPFKYTYGVNAWKHWVKTRQLDEDLLVLDELKSSKSVKLKEDLLSHTTAELNYGLAHFVNEIRRPNGENYAPDSIYYLCLGIQEYLCGSNRKDNIFIDPGYQTFEQELNKILRSWQPSILPDGSIFSRVEEDYLWRIKQLGSHSPVALLNTLFYFNTKYFGLKTVEQHLRLSFGTVFRHWKKNPLTMENKACLRYQVSSLCGTDNEDKITTGKRKHEDDEPVFEQIENTANPSRCPVKMFECYLSKSPQNLNQRMDVFYLQPECSSSTDSPVWYTSTSLDRNTLENMLVRVLLVKDIYDKDNYELDEDTD

Legend:
Test in all cases: proximity labelling
[1] = target: GFI1B-P2A-BirA*:HA (mouse (cDNA from MEL cells)) (UniProt O70237)
[2] = target: GFI1B-ΔSNAG-BirA*:HA (mouse (cDNA from MEL cells)) (UniProt O70237)
[3] = target: GFI1B-BirA*:HA (mouse (cDNA from MEL cells)) (UniProt O70237)
[4] = target: T1, SNAG-BirA*:HA (mouse (cDNA from MEL cells))
[5] = target: GFI1B-P2A-BirA*:HA (mouse (cDNA from MEL cells)) (UniProt O70237); remark: listed apart in the source
[6] = target: GFI1B-ΔSNAG-BirA*:HA (mouse (cDNA from MEL cells)) (UniProt O70237); remark: listed apart in the source

| Molecule | binding [1] | binding [2] | binding [3] | binding [4] | binding [5] | binding [6] |
| --- | --- | --- | --- | --- | --- | --- |
| HDAC1, endogenous in K562 cells (from UniProt Q13547 1-482) (enzyme) | no binding | no binding |  |  |  |  |
| HDAC2, endogenous in K562 cells (from UniProt Q92769 1-488) (enzyme) | no binding | no binding |  |  |  |  |
| SMARCB1, endogenous in K562 cells (from UniProt Q12824 1-385) |  |  | binds | no binding |  |  |
| SMARCC1, endogenous in K562 cells (from UniProt Q92922 1-1105) |  |  | binds | no binding |  |  |
| B1 |  |  |  |  | no binding | no binding |
| B2 |  |  |  |  | no binding | no binding |
